Assay results reported in patent publication US20210208163A1.
No constants are given. Whether binding was seen depends on the method and setting. Some results given as binding are weak or reduced against the parent protein; the word gives no strength.

Protein sequences, listed by entry. Tags and fused reporters are not part of them. Lines headed by an entry give the natural chain unless they say otherwise; changes in a name come on top.
UniProt P43406: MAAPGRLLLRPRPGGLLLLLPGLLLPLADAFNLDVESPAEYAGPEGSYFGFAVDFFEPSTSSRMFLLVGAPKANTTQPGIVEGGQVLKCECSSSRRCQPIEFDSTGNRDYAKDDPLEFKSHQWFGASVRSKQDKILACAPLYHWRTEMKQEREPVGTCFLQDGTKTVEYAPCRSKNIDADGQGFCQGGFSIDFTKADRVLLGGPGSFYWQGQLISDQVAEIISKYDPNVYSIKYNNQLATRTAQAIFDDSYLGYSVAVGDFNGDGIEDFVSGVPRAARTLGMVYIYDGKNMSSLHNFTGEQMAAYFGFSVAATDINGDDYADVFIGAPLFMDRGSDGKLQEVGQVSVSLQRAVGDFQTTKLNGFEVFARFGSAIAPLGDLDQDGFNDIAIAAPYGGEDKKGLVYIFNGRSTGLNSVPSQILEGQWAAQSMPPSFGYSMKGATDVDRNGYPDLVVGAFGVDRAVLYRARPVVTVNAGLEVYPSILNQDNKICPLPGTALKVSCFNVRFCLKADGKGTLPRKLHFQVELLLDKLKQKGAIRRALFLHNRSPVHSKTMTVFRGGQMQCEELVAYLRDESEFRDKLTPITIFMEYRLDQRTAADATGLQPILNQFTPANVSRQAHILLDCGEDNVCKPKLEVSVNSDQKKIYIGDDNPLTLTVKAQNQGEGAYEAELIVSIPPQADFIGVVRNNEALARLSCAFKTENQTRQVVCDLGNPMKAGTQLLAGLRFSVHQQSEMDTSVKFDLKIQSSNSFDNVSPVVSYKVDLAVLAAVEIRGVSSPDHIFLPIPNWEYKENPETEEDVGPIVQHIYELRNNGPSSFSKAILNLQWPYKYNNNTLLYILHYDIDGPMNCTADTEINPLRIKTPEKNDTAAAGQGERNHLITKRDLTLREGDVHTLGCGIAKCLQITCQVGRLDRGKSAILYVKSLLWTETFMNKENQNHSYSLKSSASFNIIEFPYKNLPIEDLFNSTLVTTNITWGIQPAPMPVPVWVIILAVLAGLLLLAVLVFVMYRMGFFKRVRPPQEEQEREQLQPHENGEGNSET
UniProt O54890: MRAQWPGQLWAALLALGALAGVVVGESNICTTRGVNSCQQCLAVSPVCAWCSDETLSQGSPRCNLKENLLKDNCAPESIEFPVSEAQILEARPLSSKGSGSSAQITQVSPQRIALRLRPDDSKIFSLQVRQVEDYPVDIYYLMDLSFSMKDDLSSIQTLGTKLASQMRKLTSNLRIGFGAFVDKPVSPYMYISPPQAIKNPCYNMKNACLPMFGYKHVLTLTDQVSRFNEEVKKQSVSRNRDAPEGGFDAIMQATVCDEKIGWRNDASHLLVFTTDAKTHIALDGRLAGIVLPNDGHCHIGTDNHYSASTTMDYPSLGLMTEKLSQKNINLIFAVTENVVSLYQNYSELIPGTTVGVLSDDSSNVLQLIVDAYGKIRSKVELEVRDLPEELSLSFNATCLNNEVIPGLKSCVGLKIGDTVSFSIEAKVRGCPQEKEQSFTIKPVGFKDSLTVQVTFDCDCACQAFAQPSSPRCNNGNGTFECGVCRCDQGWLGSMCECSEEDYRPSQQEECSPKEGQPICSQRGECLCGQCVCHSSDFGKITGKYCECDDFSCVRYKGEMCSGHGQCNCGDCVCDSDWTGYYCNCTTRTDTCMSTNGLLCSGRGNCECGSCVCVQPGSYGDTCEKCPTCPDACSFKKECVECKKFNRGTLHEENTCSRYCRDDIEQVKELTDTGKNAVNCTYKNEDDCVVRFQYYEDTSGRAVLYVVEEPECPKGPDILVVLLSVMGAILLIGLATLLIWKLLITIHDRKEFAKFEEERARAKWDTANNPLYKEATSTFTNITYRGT
UniProt Q9JHJ8: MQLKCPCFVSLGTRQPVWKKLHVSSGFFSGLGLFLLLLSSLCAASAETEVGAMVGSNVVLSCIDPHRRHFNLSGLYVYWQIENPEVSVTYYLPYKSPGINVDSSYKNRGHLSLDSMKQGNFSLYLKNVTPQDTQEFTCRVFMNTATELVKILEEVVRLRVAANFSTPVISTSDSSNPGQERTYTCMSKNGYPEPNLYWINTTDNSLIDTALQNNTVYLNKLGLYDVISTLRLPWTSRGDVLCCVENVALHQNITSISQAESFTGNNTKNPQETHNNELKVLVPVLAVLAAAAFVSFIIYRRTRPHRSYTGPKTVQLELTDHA

Columns and labels:
[1] = target: T1, recombinant mouse integrin αvβ3 (R&D Systems, 7889-AV-050) (mouse) (UniProt P43406+O54890); test: SPR (Biacore), WT mICOSL immobilised on a CM5 chip, αvβ3 as analyte, 0.2 mM Ca2+ / 0.1 mM Mg2+
[2] = target: T1, recombinant mouse integrin αvβ3 (R&D Systems, 7889-AV-050) (mouse); test: SPR, Mn2+
[3] = target: T1, recombinant mouse integrin αvβ3 (R&D Systems, 7889-AV-050) (mouse); test: SPR (Biacore), mICOSL immobilised on a CM5 chip, αvβ3 as analyte, active αvβ3 with Mn2+; the species of the αvβ3 is not named on the sheet or in the legend
[4] = target: T1, recombinant mouse integrin αvβ3 (R&D Systems, 7889-AV-050) (mouse); test: SPR inhibition assay, mICOSL immobilised, active αvβ3 alone injected (150 nM according to the legend); the species of the αvβ3 is not named on the sheet or in the legend

Measured: binding

mouse ICOSL, wild type (RGD), full-length, N-terminal His-tag (from UniProt Q9JHJ8 47-277) (ligand)
binds: all assays above
